Test results from paper PMC10164935.
These are yes or no findings as the source states them, for the method shown. In cells and extracts the contact can be indirect.

Sequences of proteins named here, by UniProt entry; tags and fusion partners are left off. A change or cut given only in a name is not applied to a line headed by its entry. A line that says so, or that is headed by a name, gives the form on record, which may keep a tag or linker.
UniProt P21333: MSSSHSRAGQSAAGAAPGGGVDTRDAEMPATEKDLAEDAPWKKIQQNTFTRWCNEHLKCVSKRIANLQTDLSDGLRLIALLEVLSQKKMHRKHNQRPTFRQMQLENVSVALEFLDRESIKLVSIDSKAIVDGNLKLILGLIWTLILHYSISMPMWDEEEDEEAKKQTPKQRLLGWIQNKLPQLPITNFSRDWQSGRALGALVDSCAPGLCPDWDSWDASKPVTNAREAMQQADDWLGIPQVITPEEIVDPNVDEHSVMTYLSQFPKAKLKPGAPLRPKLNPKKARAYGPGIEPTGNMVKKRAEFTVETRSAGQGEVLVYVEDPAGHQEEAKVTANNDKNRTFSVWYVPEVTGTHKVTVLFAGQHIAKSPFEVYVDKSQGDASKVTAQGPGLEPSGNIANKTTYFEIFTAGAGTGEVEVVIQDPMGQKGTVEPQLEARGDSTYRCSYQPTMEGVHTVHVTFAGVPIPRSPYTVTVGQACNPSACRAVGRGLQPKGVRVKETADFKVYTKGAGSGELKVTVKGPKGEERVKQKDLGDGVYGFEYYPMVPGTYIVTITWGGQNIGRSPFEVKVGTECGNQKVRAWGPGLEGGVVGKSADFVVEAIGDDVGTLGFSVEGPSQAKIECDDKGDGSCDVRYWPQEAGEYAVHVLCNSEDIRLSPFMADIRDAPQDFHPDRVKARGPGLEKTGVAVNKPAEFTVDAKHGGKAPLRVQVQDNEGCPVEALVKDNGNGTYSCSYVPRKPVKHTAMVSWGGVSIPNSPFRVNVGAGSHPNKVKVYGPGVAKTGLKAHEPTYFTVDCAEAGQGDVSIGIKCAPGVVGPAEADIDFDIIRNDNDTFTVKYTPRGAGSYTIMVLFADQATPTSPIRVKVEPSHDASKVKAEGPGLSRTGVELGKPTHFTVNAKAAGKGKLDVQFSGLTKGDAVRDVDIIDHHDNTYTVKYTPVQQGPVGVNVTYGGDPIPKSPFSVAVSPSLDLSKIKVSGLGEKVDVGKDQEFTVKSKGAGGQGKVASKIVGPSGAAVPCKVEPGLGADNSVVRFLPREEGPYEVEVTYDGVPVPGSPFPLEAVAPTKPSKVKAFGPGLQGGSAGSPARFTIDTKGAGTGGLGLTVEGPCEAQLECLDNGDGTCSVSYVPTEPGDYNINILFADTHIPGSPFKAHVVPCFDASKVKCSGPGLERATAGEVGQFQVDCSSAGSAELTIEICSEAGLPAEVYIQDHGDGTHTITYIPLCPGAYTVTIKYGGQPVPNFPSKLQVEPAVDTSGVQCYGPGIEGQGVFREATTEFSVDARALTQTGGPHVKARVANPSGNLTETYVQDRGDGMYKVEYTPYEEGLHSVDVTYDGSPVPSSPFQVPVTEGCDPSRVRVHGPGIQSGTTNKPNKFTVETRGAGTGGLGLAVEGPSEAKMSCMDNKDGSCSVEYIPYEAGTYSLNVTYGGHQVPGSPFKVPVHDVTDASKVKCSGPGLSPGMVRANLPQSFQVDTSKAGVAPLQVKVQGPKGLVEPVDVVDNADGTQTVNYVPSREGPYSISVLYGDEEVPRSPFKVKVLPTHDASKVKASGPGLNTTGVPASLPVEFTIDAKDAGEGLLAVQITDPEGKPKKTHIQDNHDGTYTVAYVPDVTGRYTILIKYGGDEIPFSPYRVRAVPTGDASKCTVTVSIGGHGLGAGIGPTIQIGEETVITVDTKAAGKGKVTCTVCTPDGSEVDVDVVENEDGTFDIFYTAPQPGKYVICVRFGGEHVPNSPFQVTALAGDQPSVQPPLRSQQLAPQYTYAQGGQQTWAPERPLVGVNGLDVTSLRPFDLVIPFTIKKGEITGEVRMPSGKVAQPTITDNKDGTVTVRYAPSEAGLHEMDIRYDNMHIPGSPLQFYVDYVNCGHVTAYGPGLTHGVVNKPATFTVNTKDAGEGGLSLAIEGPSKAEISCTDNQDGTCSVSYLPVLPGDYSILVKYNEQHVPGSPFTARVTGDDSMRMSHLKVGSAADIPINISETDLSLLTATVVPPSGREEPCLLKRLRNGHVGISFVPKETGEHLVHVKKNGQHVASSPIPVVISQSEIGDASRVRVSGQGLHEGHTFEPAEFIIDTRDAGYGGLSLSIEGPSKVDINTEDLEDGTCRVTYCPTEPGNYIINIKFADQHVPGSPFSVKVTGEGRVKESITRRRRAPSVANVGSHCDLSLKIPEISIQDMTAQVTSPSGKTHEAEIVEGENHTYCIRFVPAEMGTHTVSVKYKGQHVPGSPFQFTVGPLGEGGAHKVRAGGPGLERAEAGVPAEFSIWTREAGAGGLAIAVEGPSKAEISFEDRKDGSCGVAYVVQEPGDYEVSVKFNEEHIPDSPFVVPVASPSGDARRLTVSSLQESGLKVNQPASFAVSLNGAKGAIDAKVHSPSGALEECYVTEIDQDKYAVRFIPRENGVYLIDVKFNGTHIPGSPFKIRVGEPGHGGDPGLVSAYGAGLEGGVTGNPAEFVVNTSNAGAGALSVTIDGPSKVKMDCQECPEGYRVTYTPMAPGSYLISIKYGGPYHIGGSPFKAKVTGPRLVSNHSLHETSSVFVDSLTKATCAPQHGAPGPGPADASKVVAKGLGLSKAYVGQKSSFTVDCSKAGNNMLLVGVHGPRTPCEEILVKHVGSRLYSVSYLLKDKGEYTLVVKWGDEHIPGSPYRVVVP
UniProt Q8BWW4: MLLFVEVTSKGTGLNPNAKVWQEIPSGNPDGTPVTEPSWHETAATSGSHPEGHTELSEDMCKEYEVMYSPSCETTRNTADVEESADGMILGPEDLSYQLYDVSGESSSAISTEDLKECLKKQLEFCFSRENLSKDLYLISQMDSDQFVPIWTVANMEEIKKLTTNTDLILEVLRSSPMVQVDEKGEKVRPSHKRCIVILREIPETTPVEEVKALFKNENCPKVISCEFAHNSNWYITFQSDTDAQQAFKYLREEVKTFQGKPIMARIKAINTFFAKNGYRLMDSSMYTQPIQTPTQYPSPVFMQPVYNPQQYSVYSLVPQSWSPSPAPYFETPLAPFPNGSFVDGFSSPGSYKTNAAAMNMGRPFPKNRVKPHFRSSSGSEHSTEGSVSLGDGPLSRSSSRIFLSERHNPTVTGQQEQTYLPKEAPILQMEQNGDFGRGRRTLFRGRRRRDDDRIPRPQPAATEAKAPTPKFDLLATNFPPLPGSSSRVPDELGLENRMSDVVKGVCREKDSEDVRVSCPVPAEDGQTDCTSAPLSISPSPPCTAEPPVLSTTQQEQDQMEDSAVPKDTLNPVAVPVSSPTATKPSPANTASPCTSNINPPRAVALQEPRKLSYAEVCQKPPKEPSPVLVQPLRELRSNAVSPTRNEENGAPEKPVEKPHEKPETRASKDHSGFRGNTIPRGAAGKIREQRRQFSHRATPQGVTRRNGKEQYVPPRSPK
endogenous mouse Larp4 (La-related protein 4) of MEF cells (Q8BWW4, form named): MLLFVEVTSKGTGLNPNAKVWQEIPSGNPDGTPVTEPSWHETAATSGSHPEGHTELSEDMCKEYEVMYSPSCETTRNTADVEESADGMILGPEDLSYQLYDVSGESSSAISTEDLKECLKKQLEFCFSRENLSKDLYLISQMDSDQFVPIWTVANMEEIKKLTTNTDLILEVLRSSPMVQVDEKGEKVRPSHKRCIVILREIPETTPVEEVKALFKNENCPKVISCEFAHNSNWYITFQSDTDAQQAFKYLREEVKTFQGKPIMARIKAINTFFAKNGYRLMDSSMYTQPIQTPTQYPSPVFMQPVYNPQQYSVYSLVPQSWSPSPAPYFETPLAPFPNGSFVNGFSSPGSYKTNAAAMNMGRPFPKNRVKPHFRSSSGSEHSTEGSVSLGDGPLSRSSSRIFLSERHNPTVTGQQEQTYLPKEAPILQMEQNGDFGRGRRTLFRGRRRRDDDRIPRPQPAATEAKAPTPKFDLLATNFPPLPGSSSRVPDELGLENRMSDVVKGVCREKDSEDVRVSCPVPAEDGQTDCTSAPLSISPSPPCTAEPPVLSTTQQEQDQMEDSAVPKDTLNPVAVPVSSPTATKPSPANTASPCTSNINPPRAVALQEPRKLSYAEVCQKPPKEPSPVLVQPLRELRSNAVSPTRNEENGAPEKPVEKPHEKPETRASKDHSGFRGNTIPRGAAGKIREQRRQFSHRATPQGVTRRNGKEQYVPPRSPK

Target: SBP-FLNA WT (full length) (human) (UniProt P21333)
Test: pull-down; SBP-FLNA (WT or del41) from transfected HEK293A lysate held on streptavidin beads, then hsSKM or MEF cell lysate, 1 h, 4°C, washed with TBS-0.1% Tx; blot anti-LARP4

binding: no binding
Substance: endogenous mouse Larp4 (La-related protein 4) of MEF cells (from UniProt Q8BWW4 1-719)
